The source of these data is the supplement of paper PMC3334620.

The full ranking holds about 33,000 sequences; the median of “E-score (-0.5 to 0.5)” is about -0.0034, and the highest 2% start at about 0.25. Some of the results follow.

In the assay the target is T1, Yap3 (UniProt P38749).
T1 sequence: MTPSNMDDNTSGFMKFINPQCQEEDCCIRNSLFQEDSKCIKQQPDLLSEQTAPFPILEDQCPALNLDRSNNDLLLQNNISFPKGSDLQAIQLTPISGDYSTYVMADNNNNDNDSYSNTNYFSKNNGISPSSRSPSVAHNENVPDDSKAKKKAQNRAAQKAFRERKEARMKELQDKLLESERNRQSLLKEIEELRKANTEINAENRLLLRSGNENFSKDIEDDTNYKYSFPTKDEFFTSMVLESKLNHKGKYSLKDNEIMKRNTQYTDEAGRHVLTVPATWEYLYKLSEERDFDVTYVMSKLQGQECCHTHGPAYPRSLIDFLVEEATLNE
The assay can be described thus: PBM E-score (8-mer binding enrichment) (E-score (-0.5 to 0.5)); higher = stronger / more preferred TF binding. Conditions: protein concentration: 100 nM; construct: GST-full length. Summed up:
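PURExpress in vitro transcription/translation supplied GST-tagged yeast transcription factors, either full-length or DNA-binding domain. Applied at about 100-200 nM to universal all-10-mer Agilent arrays double-stranded by primer extension, the bound protein was detected with fluorescent anti-GST. E-scores, modified Wilcoxon-Mann-Whitney statistics, were given by the Universal PBM Analysis Suite to ungapped eight-base words pooled with their reverse complements after masliner normalisation.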
ATCATTTG: the “PBM E-score” value came to 0.00757. With ACTTTTAT the figure was 0.0969; with AGCGCAAT, 0.0706. As for CTGCTAGC, the “PBM E-score” value is -0.26. Turning to CTGAATTA, the “PBM E-score” value turned out to be 0.199. With AAATTACT the figure was 0.304. For AACCAGAA the value was 0.00114. For GAAAGTGA the value was 0.152; for ACTAGGAC, 0.0231; for AACTCTGA, 0.0176. AGATCTTG: the “PBM E-score” value is -0.0561. With CCGACCAC the figure was -0.0187. For AAGTCCGT, the “PBM E-score” value was -0.131. ACGTCGAA: the “PBM E-score” value is 0.0715. Consider GGTTTAAA, for which the “PBM E-score” value came out at 0.0971. For CAGAAAGC the value was 0.0733; for ATTGTCTG, 0.11; for ATGGTCGG, -0.138.

As to AGTACCGC, the “PBM E-score” value was found to be 0.0296. As for GTGCACAA, the “PBM E-score” value turned out to be 0.00296. With AGGCATAA the figure was -0.0192; with CTGCACTA, 0.262. CAATATAG: the “PBM E-score” value is 0.218. On to ATAACGAA, for which the “PBM E-score” value is 0.235. For ACAGTGGG the value was -0.178; for AAAGTATA, 0.235.

In the case of CCGTACGG, the “PBM E-score” value is -0.0965. For the sequence CTTGTTCA, the “PBM E-score” value was 0.0982. Turning to AATAATTG, the “PBM E-score” value stood at 0.203. With CAAGCACA the figure was -0.0433. Take ACCTCCGC: the “PBM E-score” value is -0.128. As for CAGACCAA, the “PBM E-score” value came to 0.0291. In the case of CAAGGTTA, the “PBM E-score” value was found to be 0.00471. In the case of AGCGACCG, the “PBM E-score” value is -0.0678. On to CAACAGGG, for which the “PBM E-score” value was -0.116. For the sequence AACGGCGG, the “PBM E-score” value was -0.208. With AACACACA the figure was 0.163; with TGCGCAAA, 0.0388. In the case of GAGATCAC, the “PBM E-score” value is 0.125. With AAAGTAAT, the “PBM E-score” value is 0.216. Regarding AGAAGTAC, the “PBM E-score” value is -0.0902. For the sequence GAATTAGC, the “PBM E-score” value was found to be 0.0202. For TCACAGCA the value was 0.00818; for TGCCAGCA, -0.0788; for GTCGTGAA, -0.174. For GCGGTACC the value was -0.105; for AACGGCCC, -0.264; for CCGTGGTA, -0.165.

Regarding CCAGAAAA, the “PBM E-score” value is 0.189. On to CTAATGAC, for which the “PBM E-score” value came to 0.126.

Consider CATCATAA, for which the “PBM E-score” value stood at 0.196. With CCTTTAGA the figure was -0.149. As to CAACAACG, the “PBM E-score” value turned out to be 0.133. For CCGATAGA the value was -0.0967. For ATCGTGAA the value was 0.0514; for ACGGTATC, 0.103.

For CAGTAAAA, the “PBM E-score” value stood at 0.161. With ATGCGTCG the figure was -0.0312. For TAAGAATA the value was -0.0571. With GACGGCTA the figure was -0.0139; with AGGGACAT, 0.0801; with AATGATAT, 0.242. Regarding GTGCCTAA, the “PBM E-score” value was -0.196. Take AGAATAAA: the “PBM E-score” value was determined as 0.261. For ACAGAGTG the value was -0.0958; for CTTCTTCA, -0.0341.

For GGTCGACC, the “PBM E-score” value amounted to 0.0928. With CGCAATGA the figure was 0.0722; with ATCAGTAA, 0.159. For GCAATAGC the value was 0.0725; for GCAAAATA, 0.182; for CATGCCCG, 0.0256. AACTATCT: the “PBM E-score” value is 0.1. CTATTCGC: the “PBM E-score” value is 0.0835. For GTAATCAA, the “PBM E-score” value stood at 0.226. For CTCGTCGA the value was -0.0244; for GCCTCCCC, -0.0722. For the sequence AACTGAAT, the “PBM E-score” value was -0.124. On to AAGGGGTC, for which the “PBM E-score” value is -0.275.

As for GCAGACGC, the “PBM E-score” value is -0.143. Regarding GAGGTACA, the “PBM E-score” value came out at 0.0709.

CTGAGCAC: the “PBM E-score” value was -0.0962. For AGTCCTGC the value was -0.177; for CCCCCTGC, -0.344. On to CCCTGGCG, for which the “PBM E-score” value was -0.12. As to AGGCAATG, the “PBM E-score” value is -0.0865. Consider CTCGTGCC, for which the “PBM E-score” value was -0.121. With ATTCATAA the figure was 0.243. With CCGCACAG the figure was -0.117. For CGGCAAGC the value was -0.0808. Regarding ACCTATTA, the “PBM E-score” value was 0.11.

For ATAAACTC, the “PBM E-score” value is 0.0774. With CAGTATCG the figure was 0.00063; with ACAAGCCA, -0.126.
